These are yes or no findings as the source states them, for the method shown. Some entries that bind do so weakly or less than the wild type.
How the values were obtained:
B23 nucleophosmin = B23 nucleophosmin (UniProt P06748); assay: identification of polypeptides associated with the gp96 complex, method not detailed
ZNF225 = ZNF225 (UniProt Q9UK10); assay: identification of polypeptides chaperoned by or associated with gp96, method not detailed

Protein sequences, listed by entry. Tags and fused reporters are not part of them. Residues count along the entry.
UniProt P06748: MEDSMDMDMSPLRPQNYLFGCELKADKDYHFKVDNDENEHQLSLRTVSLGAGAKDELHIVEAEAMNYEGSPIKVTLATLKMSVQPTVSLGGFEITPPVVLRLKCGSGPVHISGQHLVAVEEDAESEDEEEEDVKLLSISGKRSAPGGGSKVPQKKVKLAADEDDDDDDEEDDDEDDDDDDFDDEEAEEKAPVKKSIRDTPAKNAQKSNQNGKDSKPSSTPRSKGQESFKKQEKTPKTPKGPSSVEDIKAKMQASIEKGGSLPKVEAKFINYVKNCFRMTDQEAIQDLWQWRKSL
UniProt Q9UK10: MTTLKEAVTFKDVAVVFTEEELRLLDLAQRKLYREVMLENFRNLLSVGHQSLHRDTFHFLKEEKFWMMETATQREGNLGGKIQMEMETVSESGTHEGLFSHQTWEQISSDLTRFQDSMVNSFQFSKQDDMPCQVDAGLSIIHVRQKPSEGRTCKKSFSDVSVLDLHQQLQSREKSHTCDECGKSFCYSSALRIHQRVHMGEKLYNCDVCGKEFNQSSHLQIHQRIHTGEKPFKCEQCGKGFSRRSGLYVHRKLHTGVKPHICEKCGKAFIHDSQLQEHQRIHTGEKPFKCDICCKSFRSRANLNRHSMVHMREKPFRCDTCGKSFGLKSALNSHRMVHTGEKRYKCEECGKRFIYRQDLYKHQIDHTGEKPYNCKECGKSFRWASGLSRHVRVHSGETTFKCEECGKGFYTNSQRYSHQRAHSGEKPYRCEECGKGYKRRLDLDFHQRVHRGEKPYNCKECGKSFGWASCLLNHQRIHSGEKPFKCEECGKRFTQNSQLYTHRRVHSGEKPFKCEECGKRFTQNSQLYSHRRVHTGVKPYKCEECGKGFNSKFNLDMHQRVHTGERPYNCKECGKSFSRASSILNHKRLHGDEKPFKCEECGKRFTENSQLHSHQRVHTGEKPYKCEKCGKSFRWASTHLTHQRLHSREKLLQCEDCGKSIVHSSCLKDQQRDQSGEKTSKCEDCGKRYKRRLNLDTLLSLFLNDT
UniProt P14625, residues 22-803: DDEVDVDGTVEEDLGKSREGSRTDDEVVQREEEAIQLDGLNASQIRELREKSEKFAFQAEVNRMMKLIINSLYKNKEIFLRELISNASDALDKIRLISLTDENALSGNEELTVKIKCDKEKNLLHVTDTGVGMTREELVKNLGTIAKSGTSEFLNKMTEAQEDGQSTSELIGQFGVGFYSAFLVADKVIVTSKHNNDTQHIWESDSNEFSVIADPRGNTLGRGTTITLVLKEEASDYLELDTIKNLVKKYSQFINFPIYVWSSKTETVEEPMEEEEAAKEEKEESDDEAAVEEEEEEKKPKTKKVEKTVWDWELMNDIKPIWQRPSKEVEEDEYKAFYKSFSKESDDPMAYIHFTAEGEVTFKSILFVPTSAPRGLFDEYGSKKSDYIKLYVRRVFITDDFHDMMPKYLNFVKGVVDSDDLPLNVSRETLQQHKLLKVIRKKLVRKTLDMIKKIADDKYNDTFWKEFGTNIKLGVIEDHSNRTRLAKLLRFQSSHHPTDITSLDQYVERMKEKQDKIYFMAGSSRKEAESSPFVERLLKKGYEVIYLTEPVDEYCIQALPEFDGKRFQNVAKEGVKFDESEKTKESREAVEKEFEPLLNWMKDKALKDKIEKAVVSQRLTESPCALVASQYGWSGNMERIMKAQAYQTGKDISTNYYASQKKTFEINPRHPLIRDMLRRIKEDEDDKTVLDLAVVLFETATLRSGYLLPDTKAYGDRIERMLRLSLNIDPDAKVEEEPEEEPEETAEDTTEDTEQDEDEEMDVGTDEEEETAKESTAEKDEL

tumour rejection antigen gp96 (from UniProt P14625 22-803)
binding (B23 nucleophosmin): binds
binding (ZNF225): binds
